{"source": "PubChem BioAssay AID686943 | Drosophila RNAi Screening Center | 2013", "assay": "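Fly genes whose loss alters ERK activation after insulin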 (primary screen)", "system": "Drosophila S2R+ haemocyte-like cells expressing YFP-tagged ERK (Rolled)", "reagent": "long dsRNA against Drosophila genes", "treatment": "insulin stimulation versus unstimulated cells; dose and duration not given", "measured": "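Antibody staining for doubly phosphorylated ERK divided by ERK-YFP signal, as plate z-scores, in insulin-treated and untreated cells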", "reading the numbers": "replicate 1, z-score of dpERK with insulin and replicate 2, z-score of dpERK with insulin: higher = more active ERK per ERK-YFP after insulin", "note": "The screen tested about 23,000 reagents; shown is a random part of those that have a named target and a result. 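Extra replicates exist only for a retested subset of genes; insulin dose and duration not given; both raised and lowered dpERK matter.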 Not all columns of the deposit are shown. Reagent sequences are not shown. The record does not give: the amount of reagent, the time to read-out."}
{"gene": "Targ3 (Terminal ADP-ribose protein glycohydrolase 3)", "DRSC id": "DRSC11471", "replicate 1, z-score of dpERK with insulin": -0.71, "replicate 2, z-score of dpERK with insulin": -1.34}
{"gene": "CG9449", "DRSC id": "DRSC11073", "replicate 1, z-score of dpERK with insulin": -0.13, "replicate 2, z-score of dpERK with insulin": 0.11}
{"gene": "CG17364", "DRSC id": "DRSC10269", "replicate 1, z-score of dpERK with insulin": -0.83, "replicate 2, z-score of dpERK with insulin": 1.15}
{"gene": "CG17364", "DRSC id": "DRSC10270", "replicate 1, z-score of dpERK with insulin": -0.06, "replicate 2, z-score of dpERK with insulin": 1.59}
{"gene": "CG17364", "DRSC id": "DRSC22689", "replicate 1, z-score of dpERK with insulin": -0.6, "replicate 2, z-score of dpERK with insulin": 2}

Next part; the last 2 above are carried over.
{"gene": "CG17364", "DRSC id": "DRSC10270", "replicate 1, z-score of dpERK with insulin": -0.06, "replicate 2, z-score of dpERK with insulin": 1.59}
{"gene": "CG17364", "DRSC id": "DRSC22689", "replicate 1, z-score of dpERK with insulin": -0.6, "replicate 2, z-score of dpERK with insulin": 2}
{"gene": "Tsen54 (tRNA splicing endonuclease subunit 54)", "DRSC id": "DRSC10527", "replicate 1, z-score of dpERK with insulin": 0.53, "replicate 2, z-score of dpERK with insulin": 0.06}
{"gene": "CG15919", "DRSC id": "DRSC06594", "replicate 1, z-score of dpERK with insulin": 1.28, "replicate 2, z-score of dpERK with insulin": -0.11}
{"gene": "Rab18", "DRSC id": "DRSC18702", "replicate 1, z-score of dpERK with insulin": -0.51, "replicate 2, z-score of dpERK with insulin": -0.62}
{"gene": "CG32301", "DRSC id": "DRSC08613", "replicate 1, z-score of dpERK with insulin": -0.93, "replicate 2, z-score of dpERK with insulin": -0.84}
{"gene": "RpS25 (Ribosomal protein S25)", "DRSC id": "DRSC16837", "replicate 1, z-score of dpERK with insulin": -0.04, "replicate 2, z-score of dpERK with insulin": 0.15}
{"gene": "CG15731", "DRSC id": "DRSC19698", "replicate 1, z-score of dpERK with insulin": 0.61, "replicate 2, z-score of dpERK with insulin": 0.73}
{"gene": "CG15731", "DRSC id": "DRSC21820", "replicate 1, z-score of dpERK with insulin": 0.85, "replicate 2, z-score of dpERK with insulin": -0.65}
